Numbering of substitutions follows the chain as printed. Construct, isoform or probe ends are uncertain for at least one entry. The comparison behind a weaker result is the experiment's own reference, which may not be listed here. At least one verdict rests on a figure or table, not on a statement of the authors. Where a protein sequence is shown, tags need not be part of it.
What was measured:
Assay in all cases: EMSA
Details in all cases: no ATP, 5 mM Mg2+, 35 mM Tris-HCl pH 7.5, 1 mM DTT, 5 mM MgCl2, 60 mM KCl, 0.1 mg/ml BSA, 30 min at 30 C, 5 nM ssDNA, recombinant protein, residues 40-859, protein details: N-terminal superfolder GFP, Ni-NTA purified, label: 5' Alexa647, single-stranded DNA
[1] = molecular target: T1, GFP-Pif1 H705A (Saccharomyces cerevisiae) (UniProt P07271)
T1 sequence (looked up): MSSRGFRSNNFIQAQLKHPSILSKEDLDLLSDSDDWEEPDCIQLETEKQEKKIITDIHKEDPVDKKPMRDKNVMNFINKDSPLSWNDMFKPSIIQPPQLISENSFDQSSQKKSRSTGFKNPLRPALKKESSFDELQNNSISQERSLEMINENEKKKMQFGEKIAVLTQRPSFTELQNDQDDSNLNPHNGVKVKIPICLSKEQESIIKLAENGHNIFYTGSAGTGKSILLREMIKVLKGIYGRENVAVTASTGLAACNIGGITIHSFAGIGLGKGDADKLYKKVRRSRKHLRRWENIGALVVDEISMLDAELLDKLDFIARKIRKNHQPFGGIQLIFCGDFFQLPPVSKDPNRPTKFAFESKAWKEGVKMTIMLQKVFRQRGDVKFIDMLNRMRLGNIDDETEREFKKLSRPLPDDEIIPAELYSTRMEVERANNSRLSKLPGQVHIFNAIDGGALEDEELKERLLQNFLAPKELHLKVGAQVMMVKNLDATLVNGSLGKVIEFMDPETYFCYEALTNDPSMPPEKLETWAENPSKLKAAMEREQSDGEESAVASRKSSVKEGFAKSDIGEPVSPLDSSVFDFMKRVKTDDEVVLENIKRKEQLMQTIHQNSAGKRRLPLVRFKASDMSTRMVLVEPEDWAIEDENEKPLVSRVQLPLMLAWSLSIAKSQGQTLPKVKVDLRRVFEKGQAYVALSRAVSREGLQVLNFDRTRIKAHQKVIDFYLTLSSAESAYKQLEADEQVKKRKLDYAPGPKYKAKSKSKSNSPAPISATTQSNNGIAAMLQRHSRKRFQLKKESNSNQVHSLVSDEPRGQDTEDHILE

[2] = molecular target: T2, GFP-Pif1 N526A (Saccharomyces cerevisiae) (UniProt P07271)
T2 sequence (looked up): T1 sequence (looked up) with N487A, A666H

[3] = molecular target: T3, GFP-Pif1 N533A (Saccharomyces cerevisiae) (UniProt P07271)
T3 sequence (looked up): T1 sequence (looked up) with N494A, A666H

Measured: binding result

GCTAGCAGTAGCCAGCATCGAACGTACGATCGGTAACGTA [40-nt ssDNA]
binds more weakly: [1] | [2] | [3]
